Tests used:
Format in all cases: cell-based
[1] = tested on: L. donovani axenic amastigotes; experiment: Potency assessment against Leishmania donovani axenic amastigotes (growth, cell counting); details: read-out: Effective concentration (EC50) L. donovani axenic amastigotes
Method: (§1) Leishmania major strain FV1 (MHOM/IL/80/Friedlin) was grown in M199 media. Leishmania donovani strain LdBob (MHOM/SD/62/1S-CL2D) were grown in modified M199 media as promastigotes (26° C.). Amastigote specific media (37° C.) was used for growth and differentiation of amastigotes. L. donovani axenic amastigotes were passed once following differentiation prior to use. Cells were enumerated using a Coulter Counter (BD Biosciences); as amastigotes tend to grow in clumps, L. donovani axenic amastigotes were passed gently through a blunt 27-gauge needle prior to counting.
(§2) The compounds were first tested against parasites grown in vitro. For T. brucei and Leishmania donovani, it is possible to cultivate free parasites in vitro as the infective stage forms: bloodstream form (BSF) for T. brucei, and axenic amastigotes for L. donovani. compounds were also tested against L. major promastigotes (the stage carried normally by the insect vector). To study infective forms of T. cruzi, compounds were added simultaneously with trypomastigotes to 3T3 fibroblast host cells and incubated for four days. This protocol thus monitors all steps of the T. cruzi infective cycle (entry, differentiation and replication as amastigotes) as well as potential effects mediated through host cell PI3Ks.

[2] = tested on: T. brucei brucei Lister 427; experiment: Potency assessment against T. brucei brucei Lister 427 bloodstream form (AlamarBlue, 72 h); details: Trypanosoma brucei, read-out: Effective concentration (EC50) T. b. brucei
Method: (§3) Assays were performed using the strain of T. brucei brucei Lister 427 adapted to the laboratory, and the human-infective strain T. b. rhodesiense (EATRO3 ETat1.2 TREU164 [37]). Both strains were grown and tested as bloodstream forms. To establish the EC50, cultures of Trypanosoma brucei and T. b. rhodesiense were treated with two-fold increasing concentrations of compounds (with similar DMSO increasing concentration as control). Cell populations were measured at 72 hours with an Infinite F200 microplate reader (Tecan Austria GmbH, Austria); the determination of cell viability was carried out by the established colorimetric technique AlamarBlue® with modifications, a 96-well plate format spectrophotometric assay which measures the ability of living cells to reduce resazurin [38,39]. Data obtained with T. b. brucei Lister 427 were confirmed by manual counting in a Neubauer chamber for a direct microscopic examination to rule out multinucleated phenotypes that could mask the colorimetric assays, as well as the subtraction of solvent background to dismiss a potential solvent-derived fluorescence. Pentamidine was used as drug control for potency comparison, and T. b. brucei Lister 927 strain was included in our experiments to evaluate the adaptation to medium for the different strains as a variable condition.

T. cruzi trypomastigotes = experiment: T. cruzi intracellular replication in NIH/3T3 host cells (β-galactosidase, CPRG); details: Trypanosoma cruzi, NIH3T3, 96 h, read-out: Effective concentration (EC50) T. cruzi
[3] = tested on: L. donovani promastigotes; experiment: Potency assessment against Leishmania donovani promastigotes (growth, cell counting); details: read-out: Effective concentration (EC50) L. donovani promastigotes
Method: as §1

T. b. rhodesiense = experiment: Potency assessment against T. b. rhodesiense EATRO3 bloodstream form (AlamarBlue, 72 h); details: Trypanosoma brucei, read-out: Effective concentration (EC50) T. b. rhodesiense
Method: as §3

L. major promastigotes = experiment: Potency assessment against Leishmania major promastigotes (growth, cell counting); details: read-out: Effective concentration (EC50) L. major
Method: as §1, §2

SMILES: CC(C)n1nc(-c2cc3cc(O)ccc3[nH]2)c2c(N)ncnc21 [Pp242]
- EC50 [1]: 0.5 ± 0.09 µM
- EC50 [2]: 0.48 ± 0.1 µM
- EC50 (T. cruzi trypomastigotes): > 10 µM
- EC50 [3]: 0.42 ± 0.03 µM
- EC50 (T. b. rhodesiense): 0.166 ± 0.015 µM
- EC50 (L. major promastigotes): 2.4 ± 0.8 µM

— patent US20130296316A1, “Antiparasitic Agents Based On mTOR Inhibitors” (priority 2010, published 2013)
